Source: PubChem BioAssay (EPA / NIEHS)
This list was built around the results that the source calls inconclusive (neither active nor inactive); the mix of calls is not that of the screen. A potency beside an inconclusive call is a rough fit, not a confirmed value. Active and inactive are the calls of the source. How the source made its calls: active means hit-call score of the fitted dose curve at least 0.9, where 1 is the maximum; inconclusive means response in the unintended direction; inactive means score below 0.9.

The chains behind the UniProt entries cited, without tags or fusion partners. Where a name states a change or a piece, a line headed by the entry shows the natural chain unless it says otherwise.
UniProt P08219: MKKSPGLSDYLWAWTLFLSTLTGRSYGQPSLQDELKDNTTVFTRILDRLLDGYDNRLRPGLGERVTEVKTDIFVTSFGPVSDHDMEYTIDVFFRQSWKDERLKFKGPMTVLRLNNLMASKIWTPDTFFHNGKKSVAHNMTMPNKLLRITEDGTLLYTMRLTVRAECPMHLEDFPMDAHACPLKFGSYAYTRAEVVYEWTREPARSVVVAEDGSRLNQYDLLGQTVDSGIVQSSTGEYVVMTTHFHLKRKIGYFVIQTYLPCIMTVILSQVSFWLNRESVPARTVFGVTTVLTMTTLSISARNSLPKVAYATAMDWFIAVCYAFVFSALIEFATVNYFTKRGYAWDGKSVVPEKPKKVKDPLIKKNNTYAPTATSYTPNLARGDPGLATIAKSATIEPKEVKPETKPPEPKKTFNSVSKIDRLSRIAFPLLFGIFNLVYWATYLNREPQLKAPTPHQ
UniProt P20789, whole entry, looked up: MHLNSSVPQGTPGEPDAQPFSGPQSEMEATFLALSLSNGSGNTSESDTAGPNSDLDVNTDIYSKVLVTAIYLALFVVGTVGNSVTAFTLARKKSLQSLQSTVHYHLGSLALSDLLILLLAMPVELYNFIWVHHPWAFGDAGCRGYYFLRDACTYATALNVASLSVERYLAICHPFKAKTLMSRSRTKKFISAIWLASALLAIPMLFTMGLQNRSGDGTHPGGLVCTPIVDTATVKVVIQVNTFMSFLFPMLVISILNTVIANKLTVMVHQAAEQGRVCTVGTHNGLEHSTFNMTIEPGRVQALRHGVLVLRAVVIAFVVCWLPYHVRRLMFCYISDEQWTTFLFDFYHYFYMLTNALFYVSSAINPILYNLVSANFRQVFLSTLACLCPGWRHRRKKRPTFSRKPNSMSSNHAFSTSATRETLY
UniProt P49884, whole entry, looked up: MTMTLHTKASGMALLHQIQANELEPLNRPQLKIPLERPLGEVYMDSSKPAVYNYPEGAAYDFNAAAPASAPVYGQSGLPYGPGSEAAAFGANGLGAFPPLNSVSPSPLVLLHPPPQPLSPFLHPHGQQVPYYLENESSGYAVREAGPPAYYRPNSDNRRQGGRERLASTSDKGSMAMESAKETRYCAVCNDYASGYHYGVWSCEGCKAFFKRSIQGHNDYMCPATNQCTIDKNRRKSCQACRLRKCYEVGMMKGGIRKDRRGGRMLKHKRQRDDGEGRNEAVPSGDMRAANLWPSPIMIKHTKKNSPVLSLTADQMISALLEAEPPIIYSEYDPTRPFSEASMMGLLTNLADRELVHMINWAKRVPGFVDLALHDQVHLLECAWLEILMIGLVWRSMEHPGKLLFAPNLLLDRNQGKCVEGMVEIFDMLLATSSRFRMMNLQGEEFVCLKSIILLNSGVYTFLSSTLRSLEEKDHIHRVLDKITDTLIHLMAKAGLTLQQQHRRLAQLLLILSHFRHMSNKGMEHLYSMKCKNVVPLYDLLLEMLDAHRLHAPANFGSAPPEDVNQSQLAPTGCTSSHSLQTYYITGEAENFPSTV
UniProt P19785, whole entry, looked up: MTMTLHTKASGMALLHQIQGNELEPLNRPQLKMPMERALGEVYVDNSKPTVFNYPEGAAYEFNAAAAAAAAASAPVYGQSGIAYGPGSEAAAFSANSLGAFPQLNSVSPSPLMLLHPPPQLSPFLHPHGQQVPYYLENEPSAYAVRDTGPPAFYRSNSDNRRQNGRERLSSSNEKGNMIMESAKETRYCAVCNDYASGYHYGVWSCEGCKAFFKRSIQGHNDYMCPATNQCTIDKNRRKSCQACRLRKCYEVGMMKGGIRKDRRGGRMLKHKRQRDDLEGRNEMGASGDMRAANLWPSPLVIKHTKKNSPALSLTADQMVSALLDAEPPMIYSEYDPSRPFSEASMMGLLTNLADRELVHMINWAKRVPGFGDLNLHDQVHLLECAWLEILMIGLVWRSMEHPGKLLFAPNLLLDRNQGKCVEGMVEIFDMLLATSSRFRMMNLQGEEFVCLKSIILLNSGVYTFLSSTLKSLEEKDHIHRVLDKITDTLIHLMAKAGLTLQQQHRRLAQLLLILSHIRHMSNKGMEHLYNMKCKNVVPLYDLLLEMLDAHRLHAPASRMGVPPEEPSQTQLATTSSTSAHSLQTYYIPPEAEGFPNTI
UniProt P04637, whole entry, looked up: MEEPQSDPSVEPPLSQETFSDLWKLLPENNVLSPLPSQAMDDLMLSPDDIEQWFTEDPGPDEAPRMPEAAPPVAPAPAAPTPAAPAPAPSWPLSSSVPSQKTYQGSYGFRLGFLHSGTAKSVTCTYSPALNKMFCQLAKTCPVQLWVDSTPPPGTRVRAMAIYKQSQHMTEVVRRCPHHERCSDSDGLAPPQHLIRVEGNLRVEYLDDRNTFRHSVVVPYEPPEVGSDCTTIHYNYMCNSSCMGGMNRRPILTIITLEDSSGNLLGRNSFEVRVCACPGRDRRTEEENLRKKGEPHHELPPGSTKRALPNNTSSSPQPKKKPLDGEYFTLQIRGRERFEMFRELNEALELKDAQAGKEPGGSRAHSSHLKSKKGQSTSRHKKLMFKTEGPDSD
UniProt P70536: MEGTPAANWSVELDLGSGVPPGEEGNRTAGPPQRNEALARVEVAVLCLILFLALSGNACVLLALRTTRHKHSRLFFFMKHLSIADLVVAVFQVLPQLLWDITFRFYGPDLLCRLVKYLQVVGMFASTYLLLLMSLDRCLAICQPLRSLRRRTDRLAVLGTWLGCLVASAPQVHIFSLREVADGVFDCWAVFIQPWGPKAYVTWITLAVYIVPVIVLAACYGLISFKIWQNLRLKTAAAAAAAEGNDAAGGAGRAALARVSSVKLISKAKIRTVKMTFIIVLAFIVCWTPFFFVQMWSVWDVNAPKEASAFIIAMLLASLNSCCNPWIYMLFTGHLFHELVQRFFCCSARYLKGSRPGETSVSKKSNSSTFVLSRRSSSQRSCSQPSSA
UniProt P35353: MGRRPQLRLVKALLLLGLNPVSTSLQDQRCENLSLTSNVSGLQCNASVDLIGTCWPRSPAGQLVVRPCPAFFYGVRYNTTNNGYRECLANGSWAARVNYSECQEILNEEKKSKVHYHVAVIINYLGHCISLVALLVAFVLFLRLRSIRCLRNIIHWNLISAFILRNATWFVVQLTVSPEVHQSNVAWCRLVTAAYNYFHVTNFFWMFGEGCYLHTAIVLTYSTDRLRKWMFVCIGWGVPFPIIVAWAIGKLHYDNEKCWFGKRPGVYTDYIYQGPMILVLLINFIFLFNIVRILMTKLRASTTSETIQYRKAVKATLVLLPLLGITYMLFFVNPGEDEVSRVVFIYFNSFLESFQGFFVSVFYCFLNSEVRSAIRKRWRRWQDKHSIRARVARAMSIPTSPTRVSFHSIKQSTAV
UniProt P19643, whole entry, looked up: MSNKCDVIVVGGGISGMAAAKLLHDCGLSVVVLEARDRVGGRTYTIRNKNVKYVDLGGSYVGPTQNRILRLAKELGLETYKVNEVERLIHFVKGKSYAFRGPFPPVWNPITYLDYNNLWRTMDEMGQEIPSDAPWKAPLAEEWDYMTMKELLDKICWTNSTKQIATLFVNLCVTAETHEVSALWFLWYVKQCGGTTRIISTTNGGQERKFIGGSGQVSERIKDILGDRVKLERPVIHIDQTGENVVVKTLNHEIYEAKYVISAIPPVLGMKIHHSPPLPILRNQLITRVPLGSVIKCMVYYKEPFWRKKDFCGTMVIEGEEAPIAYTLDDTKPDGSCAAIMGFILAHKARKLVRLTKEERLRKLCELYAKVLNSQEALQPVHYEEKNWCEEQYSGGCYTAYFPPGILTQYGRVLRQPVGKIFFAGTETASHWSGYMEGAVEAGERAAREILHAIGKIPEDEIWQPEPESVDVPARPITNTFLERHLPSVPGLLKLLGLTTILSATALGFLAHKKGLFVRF

Columns and labels:
[1] = molecular target: bovine Gamma-Aminobutyric Acid Type A Receptor BDZ, alpha 1 site (GABARa1), GABRA1 (gene 780973) (UniProt P08219); assay: NVS_LGIC_bGABARa1: NovaScreen (NVS) Ligand-Gated Ion Channel Assay for bovine Gamma-Aminobutyric Acid Type A Receptor BDZ, alpha 1 site (GABARa1) (AID 2283321)
Procedure, shortened: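 Radioligand competition binding on bovine cortical membranes, 0.75 h, filter-based scintillation counting. Primary single concentration 25 uM in duplicate; actives rerun in concentration-response to 50 uM max. Loss of signal fitted versus DMSO.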

[2] = molecular target: rat Neurotensin Receptor (NTS), Ntsr1 (gene 366274) (UniProt P20789); assay: NVS_GPCR_rNTS: NovaScreen (NVS) G Protein-Coupled Receptor Assay for rat Neurotensin Receptor (NTS) (AID 2283308)
Procedure, shortened: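 Rat forebrain membranes; radioligand binding with competitive displacement, read by filter-based scintillation counting 1 h after dosing. Primary screen in duplicate at 25 uM; actives (e.g., 30% inhibition) rerun in concentration-response up to 50 uM, loss-of-signal versus DMSO.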

[3] = molecular target: bovine Estrogen Receptor (ER), ESR1 (gene 407238) (UniProt P49884); assay: NVS_NR_bER: NovaScreen (NVS) Nuclear Receptor Binding Assay for bovine Estrogen Receptor (ER) (AID 2283345);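 further: actives lower the bound radioligand count which means they displace the ER ligand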
Procedure, shortened: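 Displacement of a radioligand from estrogen receptor in bovine uterine membrane preparations; scintillation signal taken at 18 hours, DMSO as baseline. Single-concentration duplicates (25 uM) preceded concentration-response follow-up of actives.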

[4] = molecular target: mouse Estrogen Receptor alpha (Era), Esr1 (gene 13982) (UniProt P19785); assay: NVS_NR_mERa: NovaScreen (NVS) Nuclear Receptor Binding Assay for mouse Estrogen Receptor alpha (Era) (AID 2283378);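 further: hit means loss of bound radioligand signal relative to DMSO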
Procedure, shortened: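 Extracted mouse Era incubated with tritiated or iodinated radioligand plus test chemical, 18 h. Bound fraction separated on filters, counted by scintillation. DMSO = negative control/baseline; duplicate single-point at 25 uM, then concentration-response follow-up.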

[5] = TOX21_p53_BLA_p3_viability: Viability Assessment in the Tox21 HCT-116 p53 Agonism Beta-lactamase Assay, Phase 3 (AID 2283593);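 further: cells exposed to compound for 16 h before reading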
Procedure, shortened: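 HCT116 cells, 4000/well, dosed 5 h after plating by pin transfer (217-fold dilution from DMSO stock) and incubated 16 h at 37C, 5% CO2. Viability read as ATP luminescence with CellTiter-Glo after 30 min at room temperature.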

[6] = molecular target: Cellular tumor antigen p53 (Homo sapiens) (UniProt P04637); assay: TOX21_p53_BLA_p3_ratio: Tox21 HCT-116 p53 Agonism Beta-lactamase Assay, Ratio, Phase 3 (AID 2283596)
Procedure, shortened: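 HCT116 p53-bla cells (4000/well) given compound in DMSO (217-fold dilution) after 5 h, incubated 16 h at 37C. CCF4-AM substrate 2 h at room temperature; 460/530 nm emission ratio, gain fitted against DMSO.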

[7] = molecular target: Cellular tumor antigen p53 (Homo sapiens) (UniProt P04637); assay: TOX21_p53_BLA_p5_ratio: Tox21 HCT-116 p53 Agonism Beta-lactamase Assay, Ratio, Phase 5 (AID 2283599)
Procedure, shortened: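 HCT-116 p53-bla cells (4000/well) plated 5 h, dosed with compound (217-fold DMSO dilution) for 16 h at 37 C; CCF4-AM substrate 2 h at room temperature. Activity is the 460/530 nm emission ratio (405 nm excitation), fitted in gain-of-signal direction versus DMSO.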

[8] = TOX21_p53_BLA_p5_viability: Viability Assessment in the Tox21 HCT-116 p53 Agonism Beta-lactamase Assay, Phase 5 (AID 2283600)
Procedure, shortened: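 4000 cells/well; 5 h pre-incubation; DMSO compounds pin-transferred, 217-fold dilution; 16 h, 37C/5% CO2; CCF4-AM 2 h RT; CellTiter-Glo 30 min RT; luminescence.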

[9] = test system: rat Monoamine Oxidase, MAO-A, Central (MAOAC), gene 29253; assay: NVS_ENZ_rMAOAC: NovaScreen (NVS) Enzymatic Assay for rat Monoamine Oxidase, MAO-A, Central (MAOAC) (AID 2283243);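 further: potency refers to inhibition seen as signal drop below DMSO baseline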
Procedure, shortened: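 Rat brain tissue extract served as the cell-free enzyme source; activity was measured by radiometric scintillation counting 1.5 hours after compound addition. Loss of signal relative to DMSO baseline indicated inhibition; primary screen at 25 uM in duplicate.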

[10] = molecular target: rat Oxytocin Receptor (OXT), Oxtr (gene 25342) (UniProt P70536); assay: NVS_GPCR_rOXT: NovaScreen (NVS) G Protein-Coupled Receptor Assay for rat Oxytocin Receptor (OXT) (AID 2283330)
Procedure, shortened: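 Radioligand displacement on rat uterine membranes, 1 h incubation, filter-based scintillation counting. Chemicals were screened in duplicate at 25 uM, and those passing threshold were retested in concentration-response up to 50 uM. Loss of binding was fitted versus DMSO.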

[11] = molecular target: Cellular tumor antigen p53 (Homo sapiens) (UniProt P04637); assay: TOX21_p53_BLA_p4_ratio: Tox21 HCT-116 p53 Agonism Beta-lactamase Assay, Ratio, Phase 4 (AID 2283601)
Procedure, shortened: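 HCT-116 p53 beta-lactamase reporter cells (4000/well) preincubated 5 h, then compound (217-fold dilution of DMSO stock) for 16 h at 37C. CCF4-AM substrate added 2 h at room temperature; 460/530 nm emission ratio fitted upward versus DMSO.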

[12] = molecular target: rat Corticotropin Releasing Factor Receptor (CRF), Crhr1 (gene 58959) (UniProt P35353); assay: NVS_GPCR_rCRF: NovaScreen (NVS) G Protein-Coupled Receptor Assay for rat Corticotropin Releasing Factor Receptor (CRF) (AID 2283300)
Procedure, shortened: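 Rat cortical membranes used as receptor source in a radioligand competitive displacement binding assay; scintillation read 2 h after dosing. Primary screen run in duplicate at 25 uM; loss of signal versus DMSO baseline indicates binding.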

[13] = TOX21_p53_BLA_p2_viability: Viability Assessment in the Tox21 HCT-116 p53 Agonism Beta-lactamase Assay, Phase 2 (AID 2283591);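 further: compound exposure lasted 16 h at 37 °C; actives lower the ATP signal meaning cytotoxicity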
Procedure, shortened: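 HCT116 p53-bla cells, 4000/well, dosed after 5 h plating (217-fold dilution of DMSO stocks) and incubated 16 h at 37C. Viability taken as cellular ATP by CellTiter-Glo luminescence after 30 min RT; signal loss marks cytotoxicity.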

[14] = TOX21_p53_BLA_p4_viability: Viability Assessment in the Tox21 HCT-116 p53 Agonism Beta-lactamase Assay, Phase 4 (AID 2283597);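 further: hits lower the luminescence signal meaning cytotoxicity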
Procedure, shortened: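 Cells plated, 5 h pre-incubation; DMSO compounds pinned (217-fold dilution); 16 h, 37C/5% CO2; CCF4-AM 2 h RT; CellTiter-Glo 30 min RT; luminescence read.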

[15] = molecular target: Cellular tumor antigen p53 (Homo sapiens) (UniProt P04637); assay: TOX21_p53_BLA_p2_ratio: Tox21 HCT-116 p53 Agonism Beta-lactamase Assay, Ratio, Phase 2 (AID 2283592)
Procedure, shortened: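 HCT116 p53-bla; 4000 cells/well; 5 h pre-incubation; cpd in DMSO, 217-fold dilution; 16 h 37C/5% CO2; CCF4-AM 2 h RT; Ex 405, Em 460/530 ratio; DMSO = baseline; positive fitting direction.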

[16] = molecular target: rat Monoamine Oxidase, MAO-B, Peripheral (MAOBP), Maob (gene 25750) (UniProt P19643); assay: NVS_ENZ_rMAOBP: NovaScreen (NVS) Enzymatic Assay for rat Monoamine Oxidase, MAO-B, Peripheral (MAOBP) (AID 2283242)

Compound: CCN(Cc1c(F)cccc1Cl)c1c([N+](=O)[O-])cc(C(F)(F)F)cc1[N+](=O)[O-]
- AC50 [1]: inconclusive: 5.56 µM

Compound: CCCN(CCC)c1c([N+](=O)[O-])cc(C(F)(F)F)c(N)c1[N+](=O)[O-]
- AC50 [2]: inconclusive: 0.778 µM

Compound: CCN(CC)c1c([N+](=O)[O-])cc(C(F)(F)F)c(N)c1[N+](=O)[O-]
- AC50 [3]: inconclusive: 25 µM
- AC50 [4]: inconclusive: 0.0124 µM
- AC50 [5]: inconclusive: 46.1 µM
- outcome [6]: inactive
- AC50 [7]: inconclusive: 46.1 µM
- outcome [8]: inactive

Compound: NC(=Nc1ccccc1)Nc1ccccc1
- AC50 [1]: active: 21.8 µM

Compound: Cn1cc[nH]c1=S
- AC50 [9]: inconclusive: 25 µM
- AC50 [10]: inconclusive: 25 µM

Compound: c1coc(-c2nc3ccccc3[nH]2)c1
- outcome [3]: inactive
- AC50 [4]: inconclusive: 46.8 µM
- AC50 [5]: inconclusive: 11.3 µM
- AC50 [7]: inconclusive: 46.1 µM
- AC50 [11]: inconclusive: 46.1 µM

Compound: CS(=O)(=O)c1ccc([C@@H](CC2CCCC2)C(=O)Nc2cnccn2)cc1Cl
- AC50 [12]: inconclusive: 13.1 µM

Compound: C=CCc1ccc(OC)c(OC)c1
- AC50 [10]: inconclusive: 46.7 µM

Compound: OC(c1ccc(F)cc1)(c1cncnc1)c1ccccc1Cl (stereo not drawn)
- outcome [3]: inactive
- outcome [4]: inactive
- AC50 [13]: inconclusive: 46.1 µM
- AC50 [6]: inconclusive: 46.1 µM
- outcome [14]: inactive
- AC50 [7]: inconclusive: 80.1 µM
- AC50 [8]: inconclusive: 46.1 µM
- outcome [11]: inactive

Compound: Cc1nnc(-c2ccccc2)c(=O)n1N
- AC50 [3]: inconclusive: 25 µM
- AC50 [4]: inconclusive: 25 µM
- AC50 [13]: inconclusive: 46.1 µM
- AC50 [15]: inconclusive: 46.1 µM
- AC50 [14]: inconclusive: 46.1 µM
- AC50 [7]: inconclusive: 46.1 µM
- AC50 [8]: inconclusive: 46.1 µM
- AC50 [11]: inconclusive: 46.1 µM

Compound: O=c1[nH]sc2ccccc12
- AC50 [16]: active: 19.2 µM
- AC50 [12]: active: 17 µM

Compound: COc1cc(S(=O)(=O)O)c(C)cc1N=Nc1c(O)ccc2cc(S(=O)(=O)O)ccc12
- AC50 [2]: active: 16.8 µM
- AC50 [10]: inconclusive: 10.4 µM

Compound: Cc1[nH]cnc1C[C@H]1CCc2c(C)c3ccccc3n2C1=O
- AC50 [16]: active: 22.2 µM

Compound: COC(=O)c1ccc(CNS(C)(=O)=O)cc1S(=O)(=O)NC(=O)Nc1nc(OC)cc(OC)n1
- AC50 [2]: inconclusive: 1.58 µM

Compound: CC1=CC(=O)/C(=C(/C)O)C(=O)O1
- AC50 [10]: inconclusive: 25 µM

Compound: OCC(CO)(CO)CO
- AC50 [16]: inconclusive: 0.161 µM

Compound: COCCC(=O)OC
- outcome [9]: inactive
